The supplement of paper PMC10735217
Structures can show the parent of a compound that is named as a salt. The list shows a part of the results. This data set is noisy: repeats of one test often differ as much as different tests do.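 In a drug-repurposing library screen, luminescence reads luciferase driven by eight TEAD-binding elements, stably integrated into human kidney-derived cells. Compounds scoring over five robust Z scores above the plate mean are called hits.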

System: HEK293A TEAD-LUC reporter
Assay: TEAD-luciferase reporter activity (YAP activation), robust Z score vs plate; higher = stronger YAP/TEAD activation
Settings: 24 h

Structure (SMILES) | TEAD-luciferase reporter activity (compound concentration: 200 nM) | TEAD-luciferase reporter activity (compound concentration: 2 uM) | TEAD-luciferase reporter activity (compound concentration: 10 uM)
COc1cc(N)c(Cl)cc1C(=O)NC1CN2CCC1CC2 (configuration not stated) [Zacopride] | inactive: -0.818 | inactive: 0.472 | inactive: 0.148
CN1C(=O)CN=C(c2ccc(Cl)cc2)c2cc(Cl)ccc21 [Chlordiazepam] | inactive: -0.925 | inactive: 1.18 | inactive: -2.22
C=CCC1(C(C)CCC)C(=O)N=C(O)NC1=O (configuration not stated) [Secobarbital] | inactive: -1.57 | inactive: -1.58 | inactive: -0.0472
CN1CCc2cc3c(cc2C1O)OCO3 (configuration not stated) | inactive: -1.22 |  | inactive: 0.173
C=C1[C@@H](C)[C@H]2[C@H](Cc3ccccc3)NC(=O)[C@]23OC(=O)/C=C/[C@H](O)CCC[C@@H](C)C/C=C/[C@H]3[C@@H]1O | inactive: -1.39 |  | inactive: -1.87
C=C1[C@@H](C)[C@H]2[C@H](Cc3ccccc3)NC(=O)[C@]23OC(=O)/C=C/[C@H](O)CCC[C@@H](C)C/C=C/[C@H]3[C@@H]1O [Cytochalasin B] |  | inactive: 1.31 | 
CCCC(C)C1(CC)C(=O)N=C([S-])NC1=O (configuration not stated) [Thiopental sodium] | inactive: 0.14 | inactive: -0.392 | inactive: -0.254
CC[N+]1(C)[C@@H]2C[C@@H](OC(=O)[C@H](CO)c3ccccc3)C[C@H]1[C@@H]1O[C@@H]12 (some centres not stated) | inactive: -0.509 | inactive: -0.0468 | inactive: 0.681
O=[Se]([O-])[O-] [Selenite sodium] | inactive: -0.155 |  | inactive: -0.668
O=C1CCC[C@@H]2[C@H]3CCCN4CCC[C@@H](CN12)[C@@H]34 [Sophocardipine] | inactive: 0.327 | inactive: -2.1 | inactive: -2.14
Oc1ccc2c3c1O[C@H]1c4ncc(-c5ccc(Cl)cc5)cc4C[C@@]4(O)C(C2)N(CC2CC2)CCC314 (some centres not stated) | inactive: -1.21 | inactive: -1.25 | inactive: 0.181
CCc1cccc(CC)c1-n1c(=O)[nH]c2ccccc2c1=O | inactive: 0.285 | inactive: 0.065 | inactive: 1.42
Oc1ccc(CCN2CCC(Nc3nc4ccccc4n3Cc3ccc(F)cc3)CC2)cc1 | active: 9.94 | inactive: -0.373 | inactive: -0.565
CCC1(c2ccc(N)cc2)CCC(=O)NC1=O (configuration not stated) [aminoglutethimide] |  | inactive: -0.364 | 
CCC1(c2ccc(N)cc2)CCC(=O)NC1=O (configuration not stated) [Aminoglutethimide] | inactive: 4.02 |  | inactive: -0.573
CCN(CC)C(=O)C1(c2ccccc2)CCNCC1 | inactive: 0.0301 | inactive: -0.176 | inactive: 0.957
Cc1nnc2n1-c1ccc(Cl)cc1C(c1ccccc1)=NC2 | inactive: -3 |  | inactive: -1.97
CC(Cc1ccccc1)NCCn1cnc2c1c(=O)n(C)c(=O)n2C (configuration not stated) | inactive: -0.354 | inactive: 0.373 | inactive: -0.603
CC1(C)C(C=C(Cl)Cl)C1C(=O)OC(C#N)c1ccc(F)c(Oc2ccccc2)c1 (configuration not stated) | inactive: -0.838 | inactive: -0.267 | inactive: -0.000586
CN1CCC2=C(C1)C(c1ccccc1)c1ccccc12 (configuration not stated) | inactive: 4.89 | inactive: 0.644 | inactive: 2.23
NC1=NCC(c2ccc(C(F)(F)F)cc2)O1 (configuration not stated) | inactive: -0.83 | inactive: -0.779 | inactive: -1.11
Cc1cc(C(C#N)c2ccc(Cl)cc2)c(Cl)cc1NC(=O)c1cc(I)cc(I)c1O (configuration not stated) | inactive: -1.29 | inactive: -1.18 | inactive: -0.202
COc1cc([C@@H]2c3cc4c(cc3[C@@H](NC(=O)CNCCCNCCCCNCCCN)[C@H]3COC(=O)[C@H]23)OCO4)cc(OC)c1O | inactive: -0.853 | inactive: -0.697 | inactive: -1.13
C[N+]1(CCC(C(N)=O)(c2ccccc2)c2ccccc2)CCCCCC1 | inactive: 0.0104 | inactive: -0.958 | inactive: 4.2
CCN(CC)Cc1nccn1-c1ccc([N+](=O)[O-])cc1C(=O)c1ccccc1Cl [nizofe] | inactive: -0.234 | inactive: 0.855 | inactive: -0.713
C#C[C@]1(O)CC[C@H]2[C@@H]3CCC4=CC(=O)CC[C@]4(C)[C@H]3CC[C@@]21C [Ethisterone] | inactive: -1.42 |  | inactive: 1.11
C#C[C@]1(O)CC[C@H]2[C@@H]3CCC4=CC(=O)CC[C@]4(C)[C@H]3CC[C@@]21C |  | inactive: -0.0405 | 
Cc1sc2c(c1C)C(c1ccc(Cl)cc1)=N[C@@H](CC(O)=NCCCN1CCN(C)CC1)c1nnc(C)n1-2 | active: 23.9 |  | active: 15.7

Given tab-delimited: part of the list above.
Structure (SMILES)	TEAD-luciferase reporter activity (compound concentration: 200 nM)	TEAD-luciferase reporter activity (compound concentration: 2 uM)	TEAD-luciferase reporter activity (compound concentration: 10 uM)
CN1C(=O)CN=C(c2ccc(Cl)cc2)c2cc(Cl)ccc21 [Chlordiazepam]	inactive: -0.925	inactive: 1.18	inactive: -2.22
O=[Se]([O-])[O-] [Selenite sodium]	inactive: -0.155		inactive: -0.668
O=C1CCC[C@@H]2[C@H]3CCCN4CCC[C@@H](CN12)[C@@H]34 [Sophocardipine]	inactive: 0.327	inactive: -2.1	inactive: -2.14
Oc1ccc2c3c1O[C@H]1c4ncc(-c5ccc(Cl)cc5)cc4C[C@@]4(O)C(C2)N(CC2CC2)CCC314 (some centres not stated)	inactive: -1.21	inactive: -1.25	inactive: 0.181
CCc1cccc(CC)c1-n1c(=O)[nH]c2ccccc2c1=O	inactive: 0.285	inactive: 0.065	inactive: 1.42
Oc1ccc(CCN2CCC(Nc3nc4ccccc4n3Cc3ccc(F)cc3)CC2)cc1	active: 9.94	inactive: -0.373	inactive: -0.565
CCN(CC)C(=O)C1(c2ccccc2)CCNCC1	inactive: 0.0301	inactive: -0.176	inactive: 0.957
CC(Cc1ccccc1)NCCn1cnc2c1c(=O)n(C)c(=O)n2C (configuration not stated)	inactive: -0.354	inactive: 0.373	inactive: -0.603
CC1(C)C(C=C(Cl)Cl)C1C(=O)OC(C#N)c1ccc(F)c(Oc2ccccc2)c1 (configuration not stated)	inactive: -0.838	inactive: -0.267	inactive: -0.000586
Cc1cc(C(C#N)c2ccc(Cl)cc2)c(Cl)cc1NC(=O)c1cc(I)cc(I)c1O (configuration not stated)	inactive: -1.29	inactive: -1.18	inactive: -0.202
C[N+]1(CCC(C(N)=O)(c2ccccc2)c2ccccc2)CCCCCC1	inactive: 0.0104	inactive: -0.958	inactive: 4.2

(listing goes on)

Structure (SMILES) | TEAD-luciferase reporter activity (compound concentration: 200 nM) | TEAD-luciferase reporter activity (compound concentration: 2 uM) | TEAD-luciferase reporter activity (compound concentration: 10 uM)
CN1CCc2cc(Cl)c(O)cc2[C@H]2c3ccccc3CC[C@@H]21 [ecopipam] | inactive: 0.841 | inactive: -0.66 | inactive: -1.45
CNc1ccc2oc(C[C@H]3O[C@@]4(CC[C@H]3C)O[C@H]([C@H](C)C(=O)c3ccc[nH]3)[C@H](C)C[C@H]4C)nc2c1C(=O)O [Calcimycin] | inactive: 0.778 | inactive: -0.0275 | inactive: -0.917
Cl[C@H]1[C@H](Cl)[C@@H](Cl)[C@@H](Cl)[C@H](Cl)[C@H]1Cl | inactive: -1.81 | inactive: 0.159 | inactive: -0.753
O=c1[nH]c2cc(Cl)ccc2n1C1CCN(CCCC(c2ccc(F)cc2)c2ccc(F)cc2)CC1 | inactive: -0.564 | inactive: 0.333 | inactive: 0.0989
CC[C@@H]1/C=C/C=C/C[C@H](C)[C@@H](O)[C@](C)(O)C(=O)[C@H](C)[C@@H](O)[C@H](C)C(=O)[C@H](C)[C@@H](O)[C@H](C)/C=C/C(=O)O[C@H]2[C@@H](C)[C@@H](CC1)O[C@@]1(CC[C@@H](C)[C@@H](C[C@H](C)O)O1)[C@@H]2C | inactive: -2.86 | inactive: -1.99 | inactive: 0.995
FC(F)(F)c1cccc(C2=CCN(CCc3ccc4ccccc4c3)CC2)c1 [Xaliproden hydrochloride] | inactive: -2.86 | inactive: -0.67 | inactive: 2.51
CCN(CC)C(=O)c1ccc([C@H](c2cccc(N)c2)N2CCN(Cc3ccc(F)cc3)CC2)cc1 | inactive: -0.542 |  | inactive: 0.916
CCC(CO)(C(=O)OC1CC2CCC(C1)[N+]2(C)C)c1ccccc1 (configuration not stated) [Troventol] | inactive: 0.625 | inactive: 0.0818 | inactive: -1.52
CC(C)C[C@H](NC(=O)[C@H](CO)NC(=O)[C@@H](N)Cc1ccc(O)cc1)C(=O)O | inactive: -0.905 | inactive: -1.1 | inactive: 0.298
NC(=O)OC(Cn1ncnn1)c1ccccc1Cl (configuration not stated) | inactive: -0.956 | inactive: -0.121 | inactive: -0.304
CCN[C@H](C)Cc1cccc(C(F)(F)F)c1 [Levofenfluramine] | inactive: -2.65 | inactive: 1.46 | inactive: -0.281
CCCCCCC(C)(C)c1cc(OC)c([C@H]2C=C(CO)[C@H]3C[C@@H]2C3(C)C)c(OC)c1 | inactive: -1.25 |  | inactive: 0.037
C=CC[C@]1(O)CC[C@H]2[C@@H]3CCC4=CC(=O)CCC4=C3C=C[C@@]21C [Altrenogest] | inactive: 0.296 | inactive: -0.85 | inactive: -0.178
COc1cc2cc(c1Cl)N(C)C(=O)C[C@H](OC(=O)C(C)C)[C@]1(C)O[C@H]1[C@H](C)[C@@H]1C[C@@](O)(NC(=O)O1)[C@H](OC)/C=C/C=C(\C)C2 [Ansamitocin P3] | active: 6.17 | inactive: 2.5 | active: 6.04
CN(C)CCc1cc2ccccc2[nH]1 | inactive: 2.87 | inactive: 0.497 | inactive: 0.845
CCC(C(N)=O)N1CC(C=C(F)F)CC1=O (configuration not stated) | inactive: -1.08 | inactive: 2.01 | inactive: -0.686
CN1C(=O)CC(=O)N(c2ccccc2)c2cc(C(F)(F)F)ccc21 [Triflubazam] | inactive: -2.51 | inactive: -0.957 | inactive: 0.421
N=C(N)c1ccc(-c2csc(N(CCC(=O)O)C3CCN(CC(=O)O)CC3)n2)cc1 | inactive: -0.974 | inactive: -0.477 | inactive: 0.303
N[C@@H](Cc1ccc(O)cc1)C(=O)NCC(=O)NCC(=O)O | inactive: -0.883 | inactive: -1.66 | inactive: 0.813
CC(CC(N)CC(=O)O)CC(C)(C)C (configuration not stated) | inactive: 0.691 | inactive: 0.918 | inactive: -0.372
CCC[N+]1(C)C2CCC1CC(OC1c3ccccc3CSc3ccccc31)C2 (configuration not stated) [tipetropium] | inactive: -1.42 | inactive: 1.46 | inactive: 0.12
CC(C)CC(N(C)C)C1(c2ccc(Cl)cc2)CCC1 (configuration not stated) [Sibutramine hydrochloride] | inactive: 3.47 |  | inactive: -0.489
CC(C)CC(N(C)C)C1(c2ccc(Cl)cc2)CCC1 (configuration not stated) |  | inactive: -0.173 | 
NCC(O)c1cccc(O)c1 (configuration not stated) | inactive: 1.81 | inactive: 0.458 | inactive: 2.81
O=P(NCCCl)(NCCCl)O[C@@H]1O[C@H](CO)[C@@H](O)[C@H](O)[C@H]1O | inactive: 1.96 | inactive: 0.0686 | inactive: -0.177
CC(=O)N1N=C(c2ccc(N)cc2)c2cc3c(cc2C[C@H]1C)OCO3 [talampanel] | inactive: 1.88 | inactive: 4.15 | inactive: -1.7
CC(C)[C@]12O[C@H]1[C@@H]1O[C@]13[C@]1(O[C@H]1C[C@H]1C4=C(CC[C@@]13C)C(=O)OC4)[C@@H]2OCOP(=O)([O-])[O-] [Minnelide] | inactive: -0.43 | inactive: -2.45 | inactive: -2.2
